From paper PMC8977021, “bZIP transcription factors PcYap1 and PcRsmA link oxidative stress response to secondary metabolism and development in Penicillium chrysogenum”
For some assays here: A negative result means that nothing was seen under these conditions. Construct, isoform or probe ends are uncertain for at least one entry. For some assays here: At least one verdict was read from the data and is not stated in words by the source. For some assays here: Tags and fusion partners may be left off the protein sequences shown.

Columns and labels:
PcYap1 = molecular target: T1, PcYap1 (UniProt B6HDY4); assay: EMSA; conditions: LightShift binding buffer 1X, about 10% glycerol, 5 mM MgCl2, 20 fmol biotin probe, 10 ug protein, 20 uL, room temperature 20 min; 5% native PAGE in 0.5X TBE; recombinant protein; protein details: C-terminal c-myc-6xHis; label: 3' biotin; probe letters rebuilt from the primers and the genome
T1 sequence (looked up, limits assumed): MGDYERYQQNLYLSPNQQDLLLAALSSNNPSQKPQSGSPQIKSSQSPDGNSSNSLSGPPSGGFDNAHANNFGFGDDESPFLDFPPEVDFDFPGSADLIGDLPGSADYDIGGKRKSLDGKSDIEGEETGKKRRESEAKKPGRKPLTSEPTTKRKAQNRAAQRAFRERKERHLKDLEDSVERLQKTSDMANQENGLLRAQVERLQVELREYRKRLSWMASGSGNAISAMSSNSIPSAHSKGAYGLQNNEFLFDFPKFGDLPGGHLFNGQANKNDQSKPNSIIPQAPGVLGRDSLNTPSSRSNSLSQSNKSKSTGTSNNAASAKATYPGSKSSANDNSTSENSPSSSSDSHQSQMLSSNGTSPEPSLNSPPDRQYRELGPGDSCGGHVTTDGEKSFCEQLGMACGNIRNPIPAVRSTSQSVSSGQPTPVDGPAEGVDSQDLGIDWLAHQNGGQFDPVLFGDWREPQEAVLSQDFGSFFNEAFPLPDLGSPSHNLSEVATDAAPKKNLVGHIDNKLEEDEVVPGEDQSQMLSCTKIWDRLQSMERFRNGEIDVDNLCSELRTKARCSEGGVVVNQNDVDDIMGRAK

PcRsmA [1] = molecular target: T2, PcRsmA (UniProt B6GZ21); assay: EMSA; conditions: LightShift binding buffer 1X, about 10% glycerol, 5 mM MgCl2, 20 fmol biotin probe, 10 ug protein, 20 uL, room temperature 20 min; 5% native PAGE in 0.5X TBE; recombinant protein; residues 1-299; protein details: C-terminal c-myc-6xHis; label: 3' biotin; probe letters rebuilt from the primers and the genome
T2 sequence (looked up): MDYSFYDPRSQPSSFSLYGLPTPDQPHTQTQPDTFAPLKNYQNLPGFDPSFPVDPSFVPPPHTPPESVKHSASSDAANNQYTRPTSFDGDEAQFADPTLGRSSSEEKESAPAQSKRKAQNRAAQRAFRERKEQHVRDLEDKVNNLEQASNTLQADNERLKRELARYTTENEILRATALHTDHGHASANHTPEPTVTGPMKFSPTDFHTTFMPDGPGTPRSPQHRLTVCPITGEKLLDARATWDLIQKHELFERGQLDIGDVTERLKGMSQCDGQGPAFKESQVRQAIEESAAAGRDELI

PcRsmA [2] = molecular target: T2, PcRsmA; assay: competition with a labelled probe; conditions: unlabelled 50-200x vs labelled RsmA-2C; LightShift binding buffer 1X, about 10% glycerol, 5 mM MgCl2, 20 fmol biotin probe, 10 ug protein, 20 uL, room temperature 20 min; 5% native PAGE in 0.5X TBE; recombinant protein; residues 1-299; protein details: C-terminal c-myc-6xHis; label: 3' biotin

Sequence | binding result (PcYap1) | binding result (PcRsmA [1]) | binding result (PcRsmA [2])
AACGACGGCGATGTTCCAAGGTAAACCGGCACGTAGAAAATGTCCGGACCACCTTGGCTCTCGTTGCAGCGTGTTGAATCTTCAGCCACCATAAGTCGATAGCATCCGGTTAGAGTGCAACGTGGGTCTGTCTCATTCTTCTCGGTTCTTGGCACCAGAATCGGGCGTAGTTTGCCCACTGCCAAG (double strand) [probe 3] | no binding | no binding | 
ATGGAGATTGGCCAGGTCAGCCATATATACCCTGCAATGGCAGACCAATGCAGCAGGCCCAGTATAAGGAATTCCCCTCGAGCTTGTCTGTGATTGCGTTTTTTCTAACACTTGTTGTTGCATCCGATCCGTCCCTACCAATTATTGGTCATTGACAGAGATGACTCAACTGAAGCCACCGAACGGAACCACGCCGAT (double strand) [probe 1] | no binding | no binding | 
ATGTCTCCAGGTTGTCTCAGCATAAACACCCCGCCCCCGCTCAGGCACACAGGAAGAGAGCTCAGGTCGTTTCCATTGCGTCCATACTCTTCACTCATTGTCATCTGCAGGAGAACTTCCCCTGTCCCTTTGCCAAGCCCTCTCTTCGTCGTTGTCCACGCCTTCAAGTTTTCACCATTATTTTTCTAGACACCATGGCTTCC (double strand) [probe 6] | no binding | no binding | 
CTCCAGGTTGTCTCAGCATAAACA (double strand) [RsmA-2C] |  |  | binds
TGTTTATGCTGAGACAACCTGGAGACATTATACGCTTGCAGCCCAGATGCTTACTGGATGGGGCCGCTGGAGCCAGTGTAAAATTAGTAACCGTATCTC (double strand) [upPta1] | binds | binds | 
TTGCCCACTGCCAAGTCGCGGGGCCGCTTGGCTGTCCTTGTGGTGGGATTTCCCGATGCAACATGCAGATACATGTAGTCGACAGTTGACAGAGCCAATGGCATCGGATCTGCCGTAGACCGTGCTAGACGAAAGTCTCCATCTTGTCTGCGGGCAGTGCTTCAGTCGCCCAGATTCTCGATGGAGATTGGCCAG (double strand) [probe 2] | no binding | no binding | 
